The results in this text go back to publication PMC13229380.

This assay concerns the target m54.5p, C-terminally V5-tagged (m54.5p-V5) (murine cytomegalovirus (MCMV)). The assay is described as follows: affinity purification with mass spectrometry; V5 Co-IP LC-MS: V5-Trap magnetic agarose beads on lysates of m54.5p-V5-3T3 cells, with m54.5p-FLAG-3T3 cells as negative control; uninfected or MCMV-infected (24 hpi); lysis in 50 mM Tris-HCl pH 7.4, 300 mM NaCl, 1% Triton X-100, 1 mM EDTA, Benzonase; overnight at 4 °C; three biological replicates per condition.

Results are given in words; binding and its absence hold for the method and conditions named. In cells and extracts the contact can be indirect. These calls come from enrichment with a bait or labelling near it, and not all partners need be listed.

B1: protein phosphatase-6 catalytic domain (PP6C) (enzyme, UniProt Q9CQR6 1-305)
chain: MAPLDLDKYVEIARQCKYLPENDLKRLCDYVCDLLLEESNVQPVSTPVTVCGDIHGQFYDLCELFRTGGQVPDTNYIFMGDFVDRGYYSLETFTYLLALKAKWPDRITLLRGNHESRQITQVYGFYDECQTKYGNANAWRYCTKVFDMLTVAALIDEQILCVHGGLSPDIKTLDQIRTIERNQEIPHKGAFCDLVWSDPEDVDTWAISPRGAGWLFGAKVTNEFVHINNLKLICRAHQLVHEGYKFMFDEKLVTVWSAPNYCYRCGNIASIMVFKDVNTREPKLFRAVPDSERVIPPRTTTPYFL
B1: the binding result is recorded as “binds”.

B2: ANKRD 52 (protein, UniProt Q8BTI7 1-1076)
chain: MGILSITDQPPLVQAIFSRDVEEVRSLLSQKENINVLDQERRTPLHAAAYVGDVPILQLLLMSGANVNAKDTLWLTPLHRAAASRNEKVLGLLLAHSADVNARDKLWQTPLHVAAANRATKCAEALAPLLSSLNVADRSGRSALHHAVHSGHLETVNLLLNKGASLNVCDKKERQPLHWAAFLGHLEVLKLLVARGADLSCKDRKGYGLLHTAAASGQIEVVKHLLRMGAEIDEPNAFGNTALHIACYLGQDAVAIELVNAGANVNQPNDKGFTPLHVAAVSTNGALCLELLVNNGADVNYQSKEGKSPLHMAAIHGRFTRSQILIQNGSEIDCADKFGNTPLHVAARYGHELLISTLMTNGADTARRGIHDMFPLHLAVLFGFSDCCRKLLSSGQLYSIVSSLSNEHVLSAGFDINTPDSLGRTCLHAAASGGNVECLNLLLSSGADLRRRDKFGRTPLHYAAANGSYQCAVTLVTAGAGVNEADCKGCSPLHYAAASDTYRRAEPHTASSHDAEEDELLKESRRKEAFFCLEFLLDNGADPSLRDRQGYTAVHYAAAYGNRQNLELLLEMSFNCLEDVESTVPVSPLHLAAYNGHCEALKTLAETLVNLDVRDHKGRTALFLATERGSTECVEVLTAHGASALIKERKRKWTPLHAAAASGHTDSLHLLIDSGERADITDVMDAYGQTPLMLAIMNGHVDCVHLLLEKGSTADAADLRGRTALHRGAVTGCEDCLAALLDHDAFVLCRDFKGRTPIHLASACGHTAVLRTLLQAALSTDPLDAGVDYSGYSPMHWASYTGHEDCLELLLEHSPFSYLEGNPFTPLHCAVINNQDSTTEMLLGALGAKIVNSRDAKGRTPLHAAAFADNVSGLRMLLQHQAEVNATDHTGRTALMTAAESGQTAAVEFLLYRGKADLTVLDENKNTALHLACSKGHEKCALMILAETQDLGLINATNSALQMPLHIAARNGLASVVQALLSRGATVLAVDEEGHTPALACAPNKDVADCLALILSTMKPFPPKDAVSPFSFSLLKNCGIAAAKTVGGCGALPHGASCPYSQERHGAIGLDGCYSE
For the molecule B2, the binding result is recorded as “binds”.

B3: Tnpo3 (Transportin-3) (protein, UniProt Q6P2B1 1-923)
chain: MEGAKPTLQLVYQAVQALYHDPDPSGKERASFWLGELQRSVHAWEISDQLLQIRQDVESCYFAAQTMKMKIQTSFYELPTDSHASLRDSLLTHIQNLKDLSPVIVTQLALAIADLALQMPSWKGCVQTLVEKYSNDVTSLPFLLEILTVLPEEVHSRSLRIGANRRTEIIEDLAFYSSTVVSLLMTCVEKAGTDEKMLMKVFRCLGSWFNLGVLDSNFMANNKLLALLFEVLQQDKTSSNLHEAASDCVCSALYAIENVETNLPLAMQLFQGVLTLETAYHMAVAREDLDKVLNYCRIFTELCETFLEKIVCTPGQGLGDLRTLELLLICAGHPQYEVVEISFNFWYRLGEHLYKTNDEVIHSIFKAYIQRLLHALARHCQLEPDHEGVPEETDDFGEFRMRVSDLVKDLIFLIGSMECFAQLYSTLKEGNPPWEVTEAVLFIMAAIAKSVDPENNPTLVEVLEGVVHLPETVHTAVRYTSIELVGEMSEVVDRNPQFLDPVLGYLMKGLCEKPLASAAAKAIHNICSVCRDHMAQHFNGLLEIAHSLDSFMLSPEAAVGLLKGTALVLARLPLDKITECLSELCSVQVMALKKLLSQEPSNGISSDPTVFLDRLAVIFRHTNPIVENGQTHPCQKVIQEIWPVLSETLNKHRADNRIVERCCRCLRFAVRCVGKGSAALLQPLVTQMVNVYHVHQHSCFLYLGSILVDEYGMEEGCRQGLLDMLQALCIPTFQLLEQQNGLQNHPDTVDDLFRLATRFIQRSPVTLLRSQVVIPILQWAIASTTLDHRDANSSVMRFLRDLIHTGVANDHEEDFELRKELIGQVMSQLGQQLVSQLLHTCCFCLPPYTLPDVAEVLWEIMQVDRPTFCRWLENSLKGLPKETTVGAVTVTHKQLTDFHKQVTSAEECKQVCWALRDFTRLFR
As for B3, the binding result was “binds”.

B4: PP6R3 (protein, UniProt Q922D4 1-844)
chain: MFWKFDLHSSSHIDTLLEREDVTLKELMDEEDVLQECKAQNRKLIEFLLKAECLEDLVSFIIEEPPQDMDEKIRYKYPNISCELLTSDVSQMNDRLGEDESLLMKLYSFLLNESPLNPLLASFFSKVLSILISRKPEQIVDFLKKKRDFVDLIIKHIGTSAIMDLLLRLLTCIEPPQPRQDVLNWLNEERIIQRLVEIVHPSQEEDRHSNASQSLCEIVRLSRDQMLQVQNSTEPDPLLATLEKQEIIEQLLSNIFHKEKNESAIVSAIQILLTLLETRRPTFEGHIEICPPGMSHSACSVNKSVLEAIRGRLGSFHELLLEPPKKSVMKTTWGILDPPVGNTRLNVIRLISSLLQTNTSSINGDLMELNSIGVILDMFFKYTWNNFLHTQVEICIALILASPFENAENGTITDQDSTGDNLLLKHLFQKCQLIERILEAWDTNEKKQAEGGRRHGYMGHLTRIANCIVHSTDKGPNSALVQQLIKDLPDEVRERWETFCTNSLGETNKRNTVDLAFSDYQMQQMTSNFIDQFGFNDEKFADQDDIGNVSFDRVSDINFTLNTNESGNIALFEACCKERIQQFDDGGSDEEDIWEEKHIAFTPESQRRSSSGSTDSEESTDSEEEDGAKQDLFESSSANTEDKMEVDLNEPPTWSANFDVPMETTHGAPLDSVGSDVWSTEEPMPTKETGWASFSEFTSSLSTKESLRSNSPVEMETSTESVDPLTPGAAALATQPEAPGSMAMEASSDGEEDAESTDKVTETVMNGGMKETLSLTVDAKTETAVFKSEEEKLSTSQDAACKDAEETPEPAEAKCTAPLTPSSSPEQRTDQPSMPSDPSVNGPV
Regarding B4, the binding result is “binds”.

B5: ANKRD 28 (protein, UniProt Q505D1 1-1053)
chain: MAFLKLRDQPSLVQAIFNGDPDEVRALIFKKEDVNFQDNEKRTPLHAAAYLGDAEIIELLILSGARVNAKDSKWLTPLHRAVASCSEEAVQILLKHSADVNARDKNWQTPLHIAAANKAVKCAESLVPLLSNVNVSDRAGRTALHHAAFSGHGEMVKLLLSRGANINAFDKKDRRAIHWAAYMGHIEVVKLLVSHGAEVTCKDKKSYTPLHAAASSGMISVVKYLLDLGVDMNEPNAYGNTPLHVACYNGQDVVVNELIDCGANVNQKNEKGFTPLHFAAASTHGALCLELLVGNGADVNMKSKDGKTPLHMTALHGRFSRSQTIIQSGAVIDCEDKNGNTPLHIAARYGHELLINTLITSGADTAKRGIHGMFPLHLAALSGFSDCCRKLLSSGFDIDTPDDFGRTCLHAAAAGGNLECLNLLLNTGADFNKKDKFGRSPLHYAAANCNYQCLFALVGSGASVNDLDERGCTPLHYAATSDTDGKCLEYLLRNDANPGIRDKQGYNAVHYSAAYGHRLCLQLIASETPLDVLMETSGTDMLSDSDNRATISPLHLAAYHGHHQALEVLVQSLLDLDVRNSSGRTPLDLAAFKGHVECVDVLINQGASILVKDYVLKRTPIHAAATNGHSECLRLLIGNAEPQNAVDIQDGNGQTPLMLSVLNGHTDCVYSLLNKGANVDAKDKWGRTALHRGAVTGHEECVDALLQHGAKCLLRDSRGRTPIHLSAACGHIGVLGALLQSATSVDANPAVVDNHGYTALHWACYNGHETCVELLLEQDVFQKIDGNAFSPLHCAVINDNEGAAEMLIDSLGASIVNATDSKGRTPLHAAAFTDHVECLQLLLSQNAQVNSADSTGKTPLMMAAENGQTNTVEMLVSSASADLTLQDKSKNTALHLACGKGHETSALLILEKITDRNLINATNAALQTPLHVAARNGLTMVVQELLGKGASVLAVDENGYTPALACAPNKDVADCLALILATMMPVSSSSPLTSLTFNAINRYTNTSKTVSFEALPIMRNEASSYCSFNNIGGEQEYLYTDVDELNDSDSETY
Regarding B5, the binding entry is listed as “binds”.
